# Reference: PubChem BioAssay AID1347076 (National Center for Advancing Translational Sciences (NCATS), 2019)
# The whole screen tested about 400,000 compounds, of which about 13,000 (3.2%) were called active. Inconclusive results, whose numbers are uncertain, are shown with a selection of clear calls. Calls come from the whole dose curve; as a rule, active = well fitted cell-killing curve with a large enough effect; inconclusive = small, poorly fitted or top-dose-only effect, or effect the other way; inactive = flat fitted curve, though single readings scatter. Where the call is inconclusive, the potency comes from a doubtful curve fit.
# Experiment: qHTS assay for MDR1-selective chemotherapeutics: Primary screen using the drug-selected MDR subline cells KB-V1; note: nearly all actives have a fitted effect of over 60% in size
# Details: KB-V1 MDR cells viability, CellTiter-Glo, 72 h; activity change, negative = cytotoxicity: at 46.1 µM (top of the series)
# Procedure, shortened: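 Readout: CellTiter-Glo luminescence, 10 min after addition. Cells: KB-V1 MDR subline, 72 h at 37 degrees C with compound. Analysis: corrected, normalized data fitted to concentration-effect curves.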
# % is set by controls: 0 for no effect and ±100 for the full control effect; potency is the fitted concentration of half-maximal effect.
SMILES,Potency,"activity change, negative = cytotoxicity"
CCNc1ccc(Br)cc(C(=O)/C=C/c2ccccc2Cl)c1=O,active: 23.1 µM,–
COC(=O)c1cccc(N/C=C(\[N+](=O)[O-])S(=O)(=O)c2ccccc2)c1,–,inconclusive: 6.95%
COC(=O)c1ccc(CN2C(=O)c3ccccc3C2=O)cc1,"inconclusive: 1.16 µM [rising, partial curve, poor fit]",–
Cc1cccc(NC(=O)c2nc[nH]c2C(=O)N(C)Cc2ccccc2)c1,"inconclusive: 32.6 µM [rising, single point]",–
COc1ccccc1N1CCN(C(=O)c2nc(SC)ncc2Cl)CC1,active: 4.11 µM,–
O=C(CN1C(=O)CCSc2ccccc21)Nc1ccc2c(c1)OCO2,active: 18.4 µM,–
Cc1csc(NC(=O)c2sccc2C)n1,inactive,–
O=S(=O)(NC1CC1)c1ccc(S(=O)(=O)N2CCc3ccccc32)cc1,"inconclusive: 20.6 µM [cytotoxic, partial curve, poor fit]",–
NC1=C(Br)C(=O)c2ncccc2C1=O,active: 3.66 µM,–
O=C(NNS(=O)(=O)c1ccccc1[N+](=O)[O-])c1cccc(Cl)c1,inactive,–
CC(=O)N1CCOc2ccc(S(=O)(=O)N3CCC(C(=O)NCc4ccccc4)CC3)cc21,inactive,–
Cc1cc(C)nc(NS(=O)(=O)c2ccc(NC(=O)CSc3nc(-c4ccccc4)c(C#N)c(=O)[nH]3)cc2)n1,"inconclusive: 16.4 µM [rising, single point]",–
COc1ccc(CN2CCC(CO)(Cc3cccc(C(F)(F)F)c3)CC2)cc1Cn1cccn1,inactive,–
CCC(Cc1ccccc1)NC(=O)C1CCN(S(=O)(=O)c2c(C)noc2C)CC1 (stereo not drawn),"inconclusive: 16.4 µM [cytotoxic, partial curve]",–
COc1ccc(NC(=O)/C(Cl)=C(/Cl)S(=O)(=O)Cc2ccccc2)cn1,"inconclusive: 18.4 µM [cytotoxic, single point]",–
CCOC(=O)CC(c1ccc([N+](=O)[O-])cc1)n1c(C)ccc1C (stereo not drawn),"inconclusive: 29.1 µM [cytotoxic, single point]",–
CN(CCCS(=O)(=O)[O-])c1ccc(/C=C/c2ccc3ccccc3[n+]2C)cc1,inactive,–
CCCCC(=O)Nc1cccc(NC(=O)c2ccc3c(c2)OCO3)c1,active: 13 µM,–
O=C(O)CSc1c[nH]c2ccccc12,inactive,–
O=C(OCc1ccccc1)N1CCCC2CC1c1ccccc12 (stereo not drawn),inactive,–
CCOc1cc(-c2nnc(-c3ccco3)o2)cc(OCC)c1OCC,"inconclusive: 14.6 µM [cytotoxic, single point]",–
COC(=O)c1cc(NC(=O)c2cccs2)ccc1N1CCOCC1,"inconclusive: 13 µM [cytotoxic, partial curve, poor fit]",–
Cc1cc2nc(-c3ccc(SCC(=O)N4CCN(C(=O)c5ccco5)CC4)nc3)[nH]c2cc1C,"inconclusive: 29.1 µM [cytotoxic, single point]",–
CCSc1nnc(NC(=O)CSc2nc3c(c(=O)n2CC)SC(C)C3)s1 (stereo not drawn),active: 2.59 µM,–
CC(C)C[C@H](NS(=O)(=O)c1ccc(Br)cc1)C(=O)O,"inconclusive: 2.24 µM [rising, full curve]",–

# Part of the list above in order of length of the SMILES, low to high.
SMILES,Potency,"activity change, negative = cytotoxicity"
O=C(O)CSc1c[nH]c2ccccc12,inactive,–
COc1ccccc1N1CCN(C(=O)c2nc(SC)ncc2Cl)CC1,active: 4.11 µM,–
Cc1cc2nc(-c3ccc(SCC(=O)N4CCN(C(=O)c5ccco5)CC4)nc3)[nH]c2cc1C,"inconclusive: 29.1 µM [cytotoxic, single point]",–

# Next records

SMILES,Potency,"activity change, negative = cytotoxicity"
Cc1ccc(CNC(=O)C(=O)NCC2CCCN2S(=O)(=O)c2cccs2)cc1 (stereo not drawn),active: 9.2 µM,–
COc1ccc(C2CC(c3cccs3)=NN2c2ccc(C=O)cc2)cc1 (stereo not drawn),"inconclusive: 13 µM [cytotoxic, partial curve]",–
O=C(c1cn(Cc2ccccc2)nc1-c1cccnc1)N1CCN(Cc2ccccc2)CC1,inactive,–
C/C(=N\NS(=O)(=O)c1ccc([N+](=O)[O-])cc1)c1ccc(NC(=O)c2ccco2)cc1,inactive,–
CCC(=O)N1N=C(c2ccccc2)CC1c1ccccc1 (stereo not drawn),inactive,–
Fc1cc2nc(-c3ccncc3)[nH]c2cc1F,inactive,–
CC(C)(C)OC(=O)N1CCC(c2c(C(=O)NCCN3CCc4ccccc4C3)cnn2-c2ccc(F)cc2F)CC1,inactive,–
CCc1noc(C)c1C(=O)Nc1nc2c(C)cc(C)cc2s1,"inconclusive: 20.6 µM [cytotoxic, single point]",–
CC(C)c1nnc(SCC(=O)NCc2ccco2)n1C,"inconclusive: 29.1 µM [rising, partial curve, poor fit]",–
COc1cc(C)ccc1OCCOCCOc1ccc([N+](=O)[O-])cc1,"inconclusive: 23.1 µM [cytotoxic, single point]",–
O=C(OC1CCOC1=O)c1ccc(N2CCCC2)c([N+](=O)[O-])c1 (stereo not drawn),–,inconclusive: 12.1%
CC1(C)CC(=O)C=C(c2ccc(-c3ccc4[nH]ccc4c3)cc2)C1=O,"inconclusive: 14.6 µM [cytotoxic, single point]",–
c1ccc(CCNc2cnccn2)cc1,inactive,–
CCn1nc(NC(=O)c2cccnc2)c2cc3ccccc3nc21,"inconclusive: 6.51 µM [cytotoxic, partial curve]",–
Cc1ccc(C)c(N2CCN(S(=O)(=O)c3c(C)[nH]c(C)c3C(=O)N3CCCC3)CC2)c1,"inconclusive: 14.6 µM [rising, partial curve]",–
O=C(C1CCC(=O)N(C2CC2)C1)N1CCC(Oc2cccc(C(F)(F)F)c2)CC1 (stereo not drawn),inactive,–
CC(C)(C)C(=O)Nc1cccc(C(=O)c2cccc(NC(=O)C(C)(C)C)c2)c1,"inconclusive: 8.2 µM [cytotoxic, partial curve]",–
CC(=O)N[C@@H](C)C(=O)N1CCC(n2nccc2NC(=O)CCCc2ccccc2)CC1,"inconclusive: 29.1 µM [rising, single point]",–
Cc1ccc(CN(C(=O)COc2ccc([N+](=O)[O-])cc2)c2ccccn2)cc1,"inconclusive: 18.4 µM [cytotoxic, partial curve, poor fit]",–
CS(=O)(=O)N1CCN(c2ccc([N+](=O)[O-])c3cccnc23)CC1,inactive,–
C=CCN1C(=O)S/C(=C/c2ccc(Sc3nc4ccccc4[nH]3)o2)C1=O,active: 3.66 µM,–
CCN1CCN(Cc2c(O)ccc3c(=O)c(-c4ccccc4OC)coc23)CC1,inactive,–
COc1ccccc1-c1ccc(=O)n(CC(=O)NCc2ccc3c(c2)OCO3)n1,"inconclusive: 29.1 µM [cytotoxic, single point]",–
Cc1ccc2c(=O)cc(C(=O)Nc3nc4ccc(Cl)cc4s3)oc2c1C,inactive,–
CN1CCN(C(=O)c2ccc(-c3ccccc3)cc2)CC1,inactive,–

SMILES,Potency,"activity change, negative = cytotoxicity"
Nc1nc(COC(=O)CCC(=O)c2ccccc2)nc(Nc2ccccc2)n1,inactive,–
CCC(C)(C(=O)NC1CCCCC1)N(C(=O)CNC(C)=O)c1c(C)n(C)n(-c2ccccc2)c1=O (stereo not drawn),"inconclusive: 25.9 µM [rising, partial curve, poor fit]",–
Cc1nnsc1C(=O)NC1CCCc2c1cnn2-c1ccccc1F (stereo not drawn),"inconclusive: 5.8 µM [cytotoxic, partial curve, poor fit]",–
CCN(Cc1ccccc1)S(=O)(=O)CCNC(=O)c1ccccc1,active: 20.6 µM,–
O=C(C[n+]1cccc(I)c1)c1ccc(F)cc1,inactive,–
COc1ccc(-c2csc(N3CCN(S(=O)(=O)c4ccc5c(c4)NC(=O)CO5)CC3)n2)cc1,"inconclusive: 20.6 µM [cytotoxic, single point]",–
Cc1nn(CC(=O)N2CCC(C)CC2)c(=O)c2cc3sccc3n12,inactive,–
COc1ccc(CNc2nc3c(-c4cccc(C)c4)nnn3c3ccccc23)cc1,inactive,–
O=C(CCc1ccccc1)NCC1OCCc2ccccc21 (stereo not drawn),"inconclusive: 0.0046 µM [rising, full curve, poor fit]",–
Cc1cccc(-c2nnc(SCC(=O)Nc3cccc(C(=O)N4CCOCC4)c3)n2C)c1,"inconclusive: 18.4 µM [rising, partial curve, poor fit]",–
COc1cc(/C=C/C(=O)N(C)CC(=O)Nc2ccccc2SC)cc(OC)c1OC,active: 13 µM,–
C[C@]12C=C[C@H](O)CC1=CCC1C2CC[C@@]2(C)C1CCC21OCCO1 (stereo partly drawn),"inconclusive: 29.1 µM [cytotoxic, single point]",–
CCOC(=O)c1cc2c(ccn2-c2ccc(F)cc2)n1CC(=O)N1CCN(C(=O)c2ccco2)CC1,"inconclusive: 20.6 µM [cytotoxic, single point]",–
CCN(CC(=O)Nc1ccc(NC(C)=O)cc1)C(=O)CCCSc1nc2ccccc2[nH]1,inactive,–
N#Cc1c(/N=C/c2ccco2)sc2c1CCC2,"inconclusive: 4.11 µM [rising, partial curve, poor fit]",–
CC1Cc2cc(S(=O)(=O)NCCC(=O)N(C)Cc3ccccc3)ccc2N1C(=O)C1CC1 (stereo not drawn),inactive,–
Cc1ccc(CNc2cnn(C34CC5CC(CC(C5)C3)C4)c(=O)c2Cl)cc1,"inconclusive: 29.1 µM [cytotoxic, single point]",–
CCN(c1ccccc1)S(=O)(=O)c1ccc(OC)c(NC(=O)CNCC(C)O)c1 (stereo not drawn),"inconclusive: 23.1 µM [cytotoxic, single point]",–
CC(C)Cc1nnc(NC(=O)CCC(=O)NCCc2ccc(Cl)cc2)s1,"inconclusive: 2.31 µM [rising, partial curve, poor fit]",–
CN(C)c1ccc(C(=O)c2ccc(N(C)C)c3ccccc23)cc1,"inconclusive: 0.0092 µM [cytotoxic, full curve, poor fit]",–
CC1=NNC(=O)/C1=C\c1cn(-c2ccccc2)nc1-c1ccc(F)cc1,–,inconclusive: -32.5% [cytotoxic]
O=C(Cc1ccccc1Cl)Nc1cc(S(=O)(=O)N2CCOCC2)ccc1N1CCOCC1,active: 16.4 µM,–
CN1CCN(C(=O)C[C@@H]2C=C[C@H](NS(=O)(=O)c3cccc(F)c3)[C@@H](CO)O2)CC1,inactive,–

# Two entries from above, as tab-separated lines:
SMILES	Potency	activity change, negative = cytotoxicity
Nc1nc(COC(=O)CCC(=O)c2ccccc2)nc(Nc2ccccc2)n1	inactive	–
CC1Cc2cc(S(=O)(=O)NCCC(=O)N(C)Cc3ccccc3)ccc2N1C(=O)C1CC1 (stereo not drawn)	inactive	–
